Reference: US7737157B2, “Pyrimidine compounds” (Hutchison MediPharma Enterprises Limited, priority 2008, dated 2010)
Some results were stated once for a whole list of compounds, not compound by compound.

Sequences of proteins named here, by UniProt entry; tags and fusion partners are left off. Residues count along the entry.
UniProt P35968, 834-1162 limits assumed: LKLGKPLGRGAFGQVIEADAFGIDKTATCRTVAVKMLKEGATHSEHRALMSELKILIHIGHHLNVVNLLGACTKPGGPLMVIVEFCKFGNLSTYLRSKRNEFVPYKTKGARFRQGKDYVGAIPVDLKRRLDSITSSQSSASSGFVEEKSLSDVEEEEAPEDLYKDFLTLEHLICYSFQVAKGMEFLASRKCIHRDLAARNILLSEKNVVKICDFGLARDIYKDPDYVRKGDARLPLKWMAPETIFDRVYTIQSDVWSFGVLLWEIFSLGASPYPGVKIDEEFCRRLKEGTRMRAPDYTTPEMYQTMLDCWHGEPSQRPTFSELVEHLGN

These compounds were tested against T1, KDR (Homo sapiens, UniProt P35968) (assay: Inhibition of KDR kinase activity (Z'-LYTE Tyr1 Peptide assay kit)). Settings: KDR catalytic domain, result in words.
T1 construct: was mixed with a KDR catalytic domain (Invitrogen, Cat. PV3660); purchased Invitrogen PV3660
Format: biochemical

Row | Structure (SMILES) | inhibition of the activity of KDR
1 | CNC(=O)c1c(C)oc2cc(N(C)c3ccnc(Nc4cccc(NS(C)(=O)=O)c4)n3)ccc12 [Compound 2, N,2-dimethyl-6-(methyl(2-(3-(methylsulfonamido)phenylamino)pyrimidin-4-yl)amino)benzofuran-3-carboxamide] | effectively inhibited the activity of KDR
2 | CNC(=O)c1c(C)oc2cc(Oc3ccnc(Nc4cccc(OCCN5CCOCC5)c4)n3)ccc12 [Compound 4] | effectively inhibited the activity of KDR
3 | CNC(=O)c1c(C)oc2cc(Oc3ccnc(Nc4cccc(OCCCS(C)(=O)=O)c4)n3)ccc12 [Compound 5] | effectively inhibited the activity of KDR
4 | CNC(=O)c1c(C)oc2cc(Oc3ccnc(Nc4cccc(CNCCC(N)=O)c4)n3)ccc12 [Compound 6] | effectively inhibited the activity of KDR
5 | CNC(=O)c1c(C)oc2cc(Oc3ccnc(Nc4cccc(CN(C)CC(N)=O)c4)n3)ccc12 [Compound 7] | effectively inhibited the activity of KDR
6 | CNC(=O)CCNS(=O)(=O)Cc1cccc(Nc2nccc(Oc3ccc4c(C(=O)NC)c(C)oc4c3)n2)c1 [Compound 8] | effectively inhibited the activity of KDR
7 | CNC(=O)c1c(C)oc2cc(Oc3ccnc(Nc4cccc(CN5CCN(C(=O)NC)CC5)c4)n3)ccc12 [Compound 9] | effectively inhibited the activity of KDR
8 | CNC(=O)c1c(C)oc2cc(Oc3ccnc(Nc4cccc(CS(=O)(=O)NCCOC)c4)n3)ccc12 [Compound 10] | effectively inhibited the activity of KDR
9 | CNC(=O)c1c(C)oc2cc(Oc3ccnc(Nc4cccc(CS(=O)(=O)NCCC(=O)NC5CC5)c4)n3)ccc12 [Compound 11] | effectively inhibited the activity of KDR
10 | CNC(=O)c1c(C)oc2cc(Oc3ccnc(Nc4cccc(N(C)CCS(=O)(=O)N(C)C)c4)n3)ccc12 [Compound 12] | effectively inhibited the activity of KDR
11 | CNC(=O)c1c(C)oc2cc(Oc3ccnc(Nc4cccc(S(=O)(=O)NCC(N)=O)c4)n3)ccc12 [Compound 13] | effectively inhibited the activity of KDR
12 | CNC(=O)c1c(C)oc2cc(Oc3ccnc(Nc4cccc(CS(=O)(=O)NC5CC5)c4)n3)ccc12 [Compound 14] | effectively inhibited the activity of KDR
13 | CNC(=O)c1c(C)oc2cc(Oc3ccnc(Nc4cccc(CS(=O)(=O)NCCN5CCOCC5)c4)n3)ccc12 [Compound 15] | effectively inhibited the activity of KDR
14 | CNC(=O)c1c(C)oc2cc(Oc3ccnc(Nc4cccc(CNC(=O)COC)c4)n3)ccc12 [Compound 16] | effectively inhibited the activity of KDR
15 | CNC(=O)c1c(C)oc2cc(Oc3ccnc(Nc4ccc(N)nc4)n3)ccc12 [Compound 17] | effectively inhibited the activity of KDR
16 | CNC(=O)c1c(C)oc2cc(Oc3ccnc(Nc4ccc(NC)nc4)n3)ccc12 [Compound 18] | effectively inhibited the activity of KDR
17 | CNC(=O)c1c(C)oc2cc(Oc3ccnc(Nc4cccc(NC(=O)COC)c4)n3)ccc12 [Compound 19] | effectively inhibited the activity of KDR
18 | CNC(=O)c1c(C)oc2cc(Oc3ccnc(Nc4ccc(NS(C)(=O)=O)cc4)n3)ccc12 [Compound 20] | effectively inhibited the activity of KDR
19 | CNC(=O)c1c(C)oc2cc(Oc3ccnc(Nc4cccc(NS(=O)(=O)C(F)(F)F)c4)n3)ccc12 [Compound 21] | effectively inhibited the activity of KDR
20 | CNC(=O)c1c(C)oc2cc(Oc3ccnc(Nc4cccc(NC(=O)CNCCCN(C)C)c4)n3)ccc12 [Compound 22] | effectively inhibited the activity of KDR
21 | CNC(=O)c1c(C)oc2cc(Oc3ccnc(Nc4ccc(OCCOC)c(OC)c4)n3)ccc12 [Compound 23] | effectively inhibited the activity of KDR
